According to PMC12636167:
No constants are given. Whether binding was seen depends on the method and setting. In cells and extracts the contact can be indirect. Binding calls can cover weak binding; strength is not graded here.

The chains behind the UniProt entries cited, without tags or fusion partners. Where a name states a change or a piece, a line headed by the entry shows the natural chain unless it says otherwise.
UniProt Q96PU5: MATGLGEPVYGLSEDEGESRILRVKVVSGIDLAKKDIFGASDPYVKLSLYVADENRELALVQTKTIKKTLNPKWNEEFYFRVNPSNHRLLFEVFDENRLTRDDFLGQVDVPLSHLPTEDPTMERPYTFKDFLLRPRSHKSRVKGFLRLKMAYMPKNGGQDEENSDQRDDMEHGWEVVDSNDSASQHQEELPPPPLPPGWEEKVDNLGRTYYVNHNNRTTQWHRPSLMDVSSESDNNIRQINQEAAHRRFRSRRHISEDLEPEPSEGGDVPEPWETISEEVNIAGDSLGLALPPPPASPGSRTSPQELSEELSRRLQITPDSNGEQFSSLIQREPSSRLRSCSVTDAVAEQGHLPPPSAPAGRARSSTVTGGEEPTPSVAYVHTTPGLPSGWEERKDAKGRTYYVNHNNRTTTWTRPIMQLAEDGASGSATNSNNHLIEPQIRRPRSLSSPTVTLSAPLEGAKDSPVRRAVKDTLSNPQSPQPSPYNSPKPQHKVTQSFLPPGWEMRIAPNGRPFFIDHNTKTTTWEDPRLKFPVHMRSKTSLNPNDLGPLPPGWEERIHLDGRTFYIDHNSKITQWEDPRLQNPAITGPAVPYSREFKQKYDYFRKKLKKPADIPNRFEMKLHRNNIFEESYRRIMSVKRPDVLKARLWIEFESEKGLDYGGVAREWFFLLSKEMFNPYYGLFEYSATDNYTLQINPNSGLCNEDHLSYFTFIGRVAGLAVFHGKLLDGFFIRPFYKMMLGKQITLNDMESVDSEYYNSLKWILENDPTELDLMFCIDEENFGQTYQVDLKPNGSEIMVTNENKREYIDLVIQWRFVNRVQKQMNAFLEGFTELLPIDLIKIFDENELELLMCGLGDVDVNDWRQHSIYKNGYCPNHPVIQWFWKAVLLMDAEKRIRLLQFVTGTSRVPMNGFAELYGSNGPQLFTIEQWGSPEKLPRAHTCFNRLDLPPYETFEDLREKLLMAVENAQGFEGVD

Biological target: T1, Stearoyl-CoA desaturase-1 (UniProt O00767)
T1 sequence: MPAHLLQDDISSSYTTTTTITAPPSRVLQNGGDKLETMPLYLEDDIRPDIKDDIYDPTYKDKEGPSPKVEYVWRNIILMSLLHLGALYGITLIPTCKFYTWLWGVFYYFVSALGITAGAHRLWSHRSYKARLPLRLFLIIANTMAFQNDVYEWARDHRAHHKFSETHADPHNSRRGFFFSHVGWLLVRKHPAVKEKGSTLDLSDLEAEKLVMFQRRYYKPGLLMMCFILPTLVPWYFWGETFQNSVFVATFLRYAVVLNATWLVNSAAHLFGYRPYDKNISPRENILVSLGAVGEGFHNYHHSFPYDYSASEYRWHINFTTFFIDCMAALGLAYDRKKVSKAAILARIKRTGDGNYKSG
Assay: co-IP; HEK293T cells transfected with the indicated plasmids (HA-SCD, FLAG-NEDD4L or truncated NEDD4L); NP-40 lysis buffer; antibodies (SCD, HA, DYKDDDDK, NEDD4L) overnight at 4 °C, protein A/G magnetic beads, immunoblot; in one panel (Fig. 4H) cells were treated with 5 µg/ml B1, said to further facilitate the interaction

WW domain of NEDD4L (Δ154–617 aa) (from UniProt Q96PU5) (domain or fragment)
binding: binds
